# Test results published in PubChem BioAssay AID504834 (National Center for Advancing Translational Sciences (NCATS), 2011).
# Screen size: about 320,000 compounds; about 22,000 (6.9%) were called active. This list was built around the results that the source calls inconclusive (neither active nor inactive); the mix of calls is not that of the screen. Calls follow the shape of the dose curve; as a rule, active = well fitted inhibition curve with a large enough effect; inconclusive = small, poorly fitted or top-dose-only effect, or another doubt; inactive = no such curve, though single readings can be large or run the other way. Potencies beside an inconclusive call are fits to weak or partial responses and may not hold up.
# Experiment: Primary qHTS for delayed death inhibitors of the malarial parasite plastid, 96 hour incubation
# Conditions: P. falciparum luciferase reporter growth; series mostly up to 28.7 µM
# Summary of the method: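 Cell-based qHTS: luciferase-tagged P. falciparum in erythrocytes (2% hematocrit, 0.05% parasitemia final) incubated with compounds for 96 hours, 37 C, 5% CO2; luciferase detection reagent then added and luminescence measured.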
# Potency is read from the fitted curve at half-maximal effect.
row,Compound,Potency
1,O=C(O)COc1ccccc1/C=N/NC(=O)c1cc(-c2ccc(Cl)cc2)nc2ccccc12,"inconclusive: 0.0033 µM [inhibitor, full curve, poor fit]"
2,Cc1cccc(CN2CCN(C(C)C(=O)NC(C)c3ccccc3)CC2)c1 (stereo not drawn),inactive
3,COc1ccc(C)cc1NC(=O)c1cc2ccccc2cc1OCC(=O)NCc1ccco1,"inconclusive: 4.15 µM [inhibitor, partial curve, poor fit]"
4,CCOC(=O)COc1cc(OCC(=O)OCC)c2c3c(c(=O)oc2c1)CCCC3,"inconclusive: 2.08 µM [inhibitor, full curve]"
5,COCC(=O)N(C)c1nnc(-c2cnccn2)s1,"inconclusive: 20.8 µM [inhibitor, single point]"
6,COCCNC(=O)c1ccc(NS(=O)(=O)c2ccc3[nH]c(=O)[nH]c3c2)cc1,"inconclusive: 0.294 µM [inhibitor, full curve, poor fit]"
7,COc1ccc(CN2CCN(C(=O)c3ccc(-c4ccccc4)cc3)CC2)c(OC)c1OC,"inconclusive: 11.7 µM [inhibitor, single point]"
8,CCOc1ccc(NC(=S)NC(=O)/C=C/c2ccc(C)cc2)c([N+](=O)[O-])c1,inactive
9,CC1CCC(=C(C#N)c2nc(-c3cc4ccccc4oc3=O)cs2)CC1 (stereo not drawn),inactive
10,COc1ccc(OCC(=O)O/N=C(\N)Cc2ccc(Cl)cc2Cl)cc1,"inconclusive: 18.5 µM [inhibitor, single point]"
11,COC(=O)C1=CN(Cc2ccc(C)cc2)C=C(C(=O)OC)C1c1cc(OC)c(OC)c(OC)c1,"inconclusive: 13.1 µM [inhibitor, single point]"
12,COc1ccc2[nH]c(C(=O)NCc3ccccc3)c(C)c2c1,inactive
13,CCc1c(C)nc(N2CCN(c3ccccc3F)CC2)[nH]c1=O,inactive
14,COc1cc(/C=C/C(=O)O)ccc1OS(=O)(=O)c1cc(Br)ccc1C,"inconclusive: 18.5 µM [inhibitor, single point]"
15,CCN1CCN(C(=O)c2ccc(OC3CCN(CCc4ccccc4)CC3)cc2)[C@@H](C)C1=O,active: 3.7 µM
16,COc1ccccc1NC(=O)c1cc(S(=O)(=O)N2CCc3ccccc32)ccc1F,"inconclusive: 16.5 µM [inhibitor, single point]"
17,COC(=O)c1scc(C)c1N/N=C(\C)c1ccc(F)cc1F,active: 2.08 µM
18,O=C(O)c1ccccc1C(=O)Nc1ccc(Nc2ccc([N+](=O)[O-])cc2[N+](=O)[O-])cc1,"inconclusive: 18.5 µM [inhibitor, partial curve, poor fit]"
19,CCOc1ccccc1CN1CCNC(=O)C1CC(=O)NCCN1CCOC1=O (stereo not drawn),inactive
20,CCOC(=O)C1CCN(C(=O)CN2C(=O)c3cccnc3Oc3ccccc32)CC1,inactive
21,Cc1ccc(C)c(NC(=O)CCNC(=O)N2C[C@H]3C[C@@H](C2)c2cccc(=O)n2C3)c1,"inconclusive: 0.0329 µM [inhibitor, full curve, poor fit]"
22,CCOc1ccccc1CN1CCN(Cc2cc3ccccc3[nH]2)CC1CCO (stereo not drawn),"inconclusive: 18.5 µM [inhibitor, single point]"
23,CC(=O)N(CCC1(c2ccc(C)cc2)CCOC(C(C)C)C1)Cc1ccco1 (stereo not drawn),active: 4.15 µM

# Looked up above.
# COC(=O)C1=CN(Cc2ccc(C)cc2)C=C(C(=O)OC)C1c1cc(OC)c(OC)c(OC)c1 – Potency: inconclusive: 13.1 µM [inhibitor, single point]
# O=C(O)COc1ccccc1/C=N/NC(=O)c1cc(-c2ccc(Cl)cc2)nc2ccccc12 – Potency: inconclusive: 0.0033 µM [inhibitor, full curve, poor fit]

# Next compounds

row,Compound,Potency
1,O=C(Cc1ccc(S(=O)(=O)N2CCOCC2)s1)Nc1cc(Cl)ccc1Cl,"inconclusive: 18.5 µM [inhibitor, single point]"
2,O=C(Cc1cccs1)Nc1ccc(Cl)c(S(=O)(=O)N2CCOCC2)c1,"inconclusive: 3.7 µM [inhibitor, full curve, poor fit]"
3,COc1ccc(/C(O)=C2/C(=O)C(=O)N(c3ncccn3)C2c2ccc(C(C)(C)C)cc2)cc1 (stereo not drawn),inactive
4,Nc1ccccc1SCC(O)Cn1ccc2ccccc21 (stereo not drawn),inactive
5,COc1ccc(S(=O)(=O)N2CCCCC2)cc1NC(=O)CCNC(=O)c1ccccc1Cl,"inconclusive: 14.7 µM [inhibitor, partial curve, poor fit]"
6,CCc1ccc(C(=O)NNC(=O)CN2C(=O)NC(CC)(c3ccccc3)C2=O)cc1 (stereo not drawn),inactive
7,CC(=O)c1cc(C#N)c(SCc2ccc([N+](=O)[O-])cc2)nc1C,"inconclusive: 4.15 µM [inhibitor, partial curve, poor fit]"
8,COc1ccccc1-n1cnc2c(c1=O)c1nc3ccccc3nc1n2-c1ccc(C)c(C)c1,active: 10.4 µM
9,COC(=O)c1cccc(-n2nnnc2SCC(=O)Nc2nc3c(s2)CCCC3)c1,"inconclusive: 10.4 µM [inhibitor, single point]"
10,COc1cc(/C=N/NC(=O)c2cc(-c3c(C)nn(-c4ccccc4)c3C)n[nH]2)ccc1O,"inconclusive: 18.5 µM [inhibitor, single point]"
11,O=C(Nc1ccc2c(c1)C(=O)N(c1ccccc1)C2=O)C1CCCO1 (stereo not drawn),inactive
12,CCOC(=O)N1CCN(c2c(-c3ccc(C(C)C)cc3)c(=O)c2=O)CC1,"inconclusive: 18.5 µM [inhibitor, single point]"
13,CCn1c(-c2ccc(F)cc2)cnc1SCC(=O)N1CCCCC1C (stereo not drawn),inactive
14,Cc1c(Cl)ccc(S(=O)(=O)N2CCN=C2c2ccccc2)c1Cl,inactive
15,OC(COC(c1ccc(Cl)cc1)c1ccc(Cl)cc1)CN1CCc2ccccc2C1 (stereo not drawn),active: 2.62 µM
16,CC(=NCC1CCCO1)C1=C(O)CC(C)(C)CC1=O (stereo not drawn),inactive
17,Cc1c(NC(=O)CSc2nnc(-c3cccnc3)n2N)c(=O)n(-c2ccccc2)n1C,"inconclusive: 0.586 µM [inhibitor, full curve, poor fit]"
18,O=C(NCCC1=CCCCC1)C1CCN(S(=O)(=O)c2ccc(Br)s2)CC1,"inconclusive: 18.5 µM [inhibitor, single point]"
19,CCOC(=O)C1CCN(C(=O)C(CCSC)NC(=O)COc2ccccc2)CC1 (stereo not drawn),"inconclusive: 16.5 µM [inhibitor, single point]"
20,CN(C)CCCN(C(=O)CCc1ccccc1)c1nc2c(F)cccc2s1,"inconclusive: 18.5 µM [inhibitor, single point]"
21,O=[N+]([O-])c1ccc(Nc2ccccc2)cc1,"inconclusive: 2.08 µM [inhibitor, partial curve, poor fit]"
22,CCCCn1c(/N=C/c2ccccc2NS(=O)(=O)c2ccc(C)cc2)nc2ccccc21,"inconclusive: 10.4 µM [inhibitor, single point]"
23,COc1ccccc1NC(=O)Nc1nnc(C(C)C)s1,inactive

row,Compound,Potency
1,O=C(O)COc1ccc(NC(=O)c2ccc3c(c2)C(=O)N(Cc2ccccc2)C3=O)cc1,inactive
2,CCS(=O)(=O)N1CCN(c2ccc([N+](=O)[O-])c(NC(C)c3ccccc3)c2)CC1 (stereo not drawn),"inconclusive: 1.17 µM [inhibitor, full curve, poor fit]"
3,CCOC(=O)CNC(=O)c1ccc2[nH]c3ccccc3c2c1,"inconclusive: 18.5 µM [inhibitor, single point]"
4,CCCn1c(N)c(N(C)C)c(=O)n(CC(=O)Nc2ccc(OC(F)(F)F)cc2)c1=O,active: 10.4 µM
5,CC1C(=O)N2CCCc3cc(NC(=O)c4ccccc4C(F)(F)F)cc1c32 (stereo not drawn),"inconclusive: 4.15 µM [inhibitor, single point]"
6,O=C(C[n+]1ccc(-c2nnc3n2CCC3)cc1)c1ccc(Cl)cc1,inactive
7,CC(OC(=O)c1nsc(Cl)c1Cl)C(=O)NC(C)(C)C (stereo not drawn),"inconclusive: 11.7 µM [inhibitor, single point]"
8,COc1cc(C(=O)Nc2ccc3c(c2)OCCO3)ccc1-n1cnnn1,"inconclusive: 13.1 µM [inhibitor, single point]"
9,Cc1cc(C)n(C(=O)CNc2ccccc2Cl)n1,inactive
10,Cc1ccc(S(=O)(=O)Nc2ccccc2F)cc1C(=O)NCc1ccco1,"inconclusive: 5.86 µM [inhibitor, partial curve, poor fit]"
11,CC1Cc2ccccc2N1C(=O)c1cnc2sccn2c1=O (stereo not drawn),"inconclusive: 4.15 µM [inhibitor, single point]"
12,COC(=O)c1cc(NC(=O)Nc2ccccc2OC)cc(C(=O)OC)c1,"inconclusive: 18.5 µM [inhibitor, single point]"
13,CC(C)(C)c1ccc(C(=O)OCC(=O)NC2CC2)cc1,"inconclusive: 10.4 µM [inhibitor, single point]"
14,COc1cccc(/C=N/NC(=S)Nc2cccc(C(=O)O)c2)c1,"inconclusive: 1.31 µM [inhibitor, full curve, poor fit]"
15,O=[N+]([O-])c1cc(S(=O)(=O)N2CCCC2)ccc1N/N=C1/CCCc2ccccc21,"inconclusive: 14.7 µM [inhibitor, partial curve]"
16,Cc1ccc(Cl)cc1NC(=O)CN1CCN(S(=O)(=O)N2CCC(C)CC2)CC1,inactive
17,CC1(C)Cc2nc(-c3ccccc3)nc(SCC(=O)N3CCOCC3)c2CO1,"inconclusive: 10.4 µM [inhibitor, single point]"
18,O=C(CN1C(=O)NC2(CCCc3ccccc32)C1=O)N1CCN(c2cccc(C(F)(F)F)c2)CC1 (stereo not drawn),"inconclusive: 13.1 µM [inhibitor, partial curve]"
19,COc1cc(OC)c(OC)cc1/C=N/NC(=S)NCC1CCCO1 (stereo not drawn),"inconclusive: 18.5 µM [inhibitor, single point]"
20,Cc1nc2c(ccc3nc(NC(=O)c4ccc(S(=O)(=O)N(C)C)cc4)sc32)s1,"inconclusive: 11.7 µM [inhibitor, partial curve]"
21,OC(CN1CCN(c2ccccc2F)CC1)c1ccc(F)cc1 (stereo not drawn),"inconclusive: 1.65 µM [inhibitor, full curve]"
22,Cc1cccc(-c2nc3c(c(SCC(=O)N4CCCC4)n2)COC(C)(C)C3)c1,"inconclusive: 10.4 µM [inhibitor, partial curve]"

# Taken from above (2 entries):
row,Compound,Potency
5,CC1C(=O)N2CCCc3cc(NC(=O)c4ccccc4C(F)(F)F)cc1c32 (stereo not drawn),"inconclusive: 4.15 µM [inhibitor, single point]"
6,O=C(C[n+]1ccc(-c2nnc3n2CCC3)cc1)c1ccc(Cl)cc1,inactive
